Source: PubChem BioAssay AID1259405 (NCATS, 2018)
This is an unselected part of about 50,000 deposited reagents. Of all reagents, about 4,000 (8%) got an active call. 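Mouse siRNA library applied to hamster cells; one well for each siRNA.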 The numbers tell different reagents against one gene apart.

- Screen: 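Mouse-designed siRNAs used to find CHO productivity engineering targets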 (primary screen)
- Cell system: Chinese hamster CHO-K1 ovary cells with stable secreted eGFP expression
- Knock-down reagent: single siRNA against mouse genes, 0.8 pmol siRNA per well (2 µl of 400 nM stock)
- Time to read-out: 3 days
- Detection: 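Per-well intracellular GFP measured by laser scanning cytometry, plus viability from ATP luminescence, each relative to plate median of non-targeting control wells, in %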
- Scale: GFP, % of control: higher = more GFP per well, higher productivity; viability (ATP), % of control: higher = more viable cells (more ATP)
- Hit rule: 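Called active when intracellular GFP, relative to negative control, is at or above 120%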

gene knocked down | reagent no. | GFP, % of control | viability (ATP), % of control | Outcome
Uty | 1 | 57.5 | 62.3 | inactive
Uty | 2 | 59.4 | 72.1 | inactive
Uty | 3 | 86.5 | 109 | inactive
Atp5mg | 1 | 71.7 | 54.2 | inactive
Atp5mg | 2 | 65.3 | 93.6 | inactive
Atp5mg | 3 | 42.8 | 42.1 | inactive
Nudt3 | 1 | 93.1 | 85.6 | inactive
Nudt3 | 2 | 75.7 | 79.7 | inactive
Nudt3 | 3 | 87.6 | 87.9 | inactive
Rabl3 | 1 | 106 | 80 | inactive
Rabl3 | 2 | 72.9 | 52.8 | inactive
Rabl3 | 3 | 50.7 | 70.9 | inactive
Mafb | 1 | 56.6 | 62.3 | inactive
Mafb | 2 | 71.9 | 83.9 | inactive
Mafb | 3 | 76.8 | 59.4 | inactive
Rab27b | 1 | 40.2 | 68.4 | inactive
Rab27b | 2 | 85.3 | 73.4 | inactive
Lancl2 | 1 | 71.4 | 74 | inactive
Lancl2 | 2 | 62.7 | 69 | inactive
Lancl2 | 3 | 76.6 | 71.7 | inactive
Gdap1l1 | 1 | 73 | 56.9 | inactive
Gdap1l1 | 2 | 104 | 75.1 | inactive
Gdap1l1 | 3 | 89.4 | 60 | inactive
Bphl | 1 | 136 | 117 | active
Bphl | 2 | 81.5 | 96.6 | inactive
Bphl | 3 | 60.3 | 64.8 | inactive
Arln | 1 | 70.2 | 86.7 | inactive
Arln | 2 | 18.6 | 13.9 | inactive
Arln | 3 | 56.9 | 67.6 | inactive
Brca1 | 1 | 136 | 88.7 | active
Brca1 | 2 | 93.6 | 75.1 | inactive
Brca1 | 3 | 111 | 105 | inactive
Zranb2 | 1 | 34.9 | 27 | inactive
Zranb2 | 2 | 58.1 | 63.4 | inactive
Zranb2 | 3 | 45.4 | 48.8 | inactive
Or5aq7 | 1 | 55.1 | 33.4 | inactive
Or5aq7 | 2 | 91.8 | 69.7 | inactive
Or5aq7 | 3 | 119 | 78.2 | inactive
Obox3 | 1 | 115 | 85.7 | inactive
Obox3 | 2 | 55.7 | 58.1 | inactive
Obox3 | 3 | 79.9 | 37.3 | inactive
Or8d1 | 1 | 32.1 | 35.4 | inactive
Or8d1 | 2 | 61.8 | 83.3 | inactive
Or8d1 | 3 | 59.1 | 56 | inactive

Continued (9 carried over from the part before).
gene knocked down | reagent no. | GFP, % of control | viability (ATP), % of control | Outcome
Or5aq7 | 1 | 55.1 | 33.4 | inactive
Or5aq7 | 2 | 91.8 | 69.7 | inactive
Or5aq7 | 3 | 119 | 78.2 | inactive
Obox3 | 1 | 115 | 85.7 | inactive
Obox3 | 2 | 55.7 | 58.1 | inactive
Obox3 | 3 | 79.9 | 37.3 | inactive
Or8d1 | 1 | 32.1 | 35.4 | inactive
Or8d1 | 2 | 61.8 | 83.3 | inactive
Or8d1 | 3 | 59.1 | 56 | inactive
Bloc1s6 | 1 | 102 | 48.6 | inactive
Bloc1s6 | 2 | 87.8 | 51.8 | inactive
5330416C01Rik | 1 | 102 | 62.4 | inactive
5330416C01Rik | 2 | 67.3 | 74.5 | inactive
5330416C01Rik | 3 | 80.6 | 107 | inactive
Acy3 | 1 | 78.7 | 75.5 | inactive
Acy3 | 2 | 116 | 115 | inactive
Col4a3 | 1 | 66.6 | 93.9 | inactive
Col4a3 | 2 | 114 | 80.9 | inactive
Col4a3 | 3 | 64.5 | 95.5 | inactive
Trpm6 | 1 | 56.9 | 51.3 | inactive
Trpm6 | 2 | 44.3 | 22.1 | inactive
Trpm6 | 3 | 56.1 | 73.4 | inactive
Ido2 | 1 | 70.1 | 33.9 | inactive
Ido2 | 2 | 89.7 | 87.7 | inactive
Ido2 | 3 | 103 | 98.3 | inactive
Slc39a8 | 1 | 104 | 101 | inactive
Slc39a8 | 2 | 158 | 85.1 | active
Slc39a8 | 3 | 91.4 | 77.4 | inactive
Ptges3l | 1 | 128 | 62.5 | active
Ptges3l | 2 | 40.3 | 37.3 | inactive
Ptges3l | 3 | 63.1 | 57.4 | inactive
Ermap | 1 | 70.6 | 71.7 | inactive
Ermap | 2 | 69.2 | 52.6 | inactive
Ermap | 3 | 75.6 | 77.6 | inactive
Stau2 | 1 | 77.3 | 99.1 | inactive
Stau2 | 2 | 91.6 | 88.6 | inactive
Stau2 | 3 | 61.3 | 60.1 | inactive
Jarid2 | 1 | 133 | 113 | active
Jarid2 | 2 | 64.2 | 76 | inactive
Jarid2 | 3 | 70.3 | 91.6 | inactive
Rnf125 | 1 | 82.7 | 76.1 | inactive
Rnf125 | 2 | 36.2 | 28.6 | inactive
Rnf125 | 3 | 67.5 | 82.6 | inactive
Lenep | 1 | 49.6 | 82 | inactive
Lenep | 2 | 95.9 | 110 | inactive
Lenep | 3 | 96.1 | 88.9 | inactive
Asphd2 | 1 | 76.9 | 111 | inactive
Asphd2 | 2 | 67.6 | 83.9 | inactive
Trim32 | 1 | 44.5 | 51 | inactive
Trim32 | 2 | 79.1 | 77.8 | inactive
Trim32 | 3 | 66.9 | 106 | inactive
